In patent US20100021918A1, “METHOD FOR ASSAYING ACTION OF ANTITUMOR AGENT USING SPLICING DEFECTS AS INDEX” (Eisai R&D Management Co., Ltd., priority 2007, published 2010):
Further values from the same series stand in other lists.

Tested on: human colon carcinoma cell strain WiDr
Experiment: Microarray analysis (2), reviewed conditions, intron expression, Table 3
Format: cell-based
Description: WiDr cells were first suspended in RPMI1640 medium (containing 10% FBS, penicillin, and streptomycin) and seeded in a 10 cm dish (2×10^6 cells/dish). After an overnight culture in an incubator with 5% carbon dioxide gas at 37° C., the medium was changed with medium containing 14 nM of (8E,12E,14E)-7-((4-cycloheptylpiperazin-1-yl)carbonyl)oxy-3,6,16,21-tetrahydroxy-6,10,12,16,20-pentamethyl-18,19-epoxytricosa-8,12,14-trien-11-olide or containing vehicle alone. After cultured for additional six hours, TRI reagent (SIGMA) were added to the cells and the cells were harvested. RNA was purified in accordance with the protocol of TRI reagent, followed by further purification with RNeasy (QIAGEN). Absorbance at 260 nm was measured to quantify an amount of RNA. This experiment was repeated three times and RNA samples (n=3) were prepared.
Ribosomal RNA was removed from 1 μg of each total RNA of control cells (n=3) and cells with the treatment (n=3) by using RiboMinus Human/Mouse Transcriptome Isolation Kit (Invitrogen). Single stranded cDNA synthesis, double stranded cDNA synthesis, cRNA synthesis, second single stranded cDNA synthesis, cDNA fragmentation, and cDNA labeling in order were carried out for the total RNA from which ribosomal RNA was removed, by using GeneChip Whole Transcript Sense Target Labeling and Control Reagents (Affymetrix) to make a cDNA probe. The cDNA probe was used for hybridization with Human Exon 1.0 ST Array (Affymetrix). The array was washed and stained, and luminescence intensity was measured by a scanner.
Analysis conditions were reviewed in the data used in Example 3. Genes containing increased introns upon treatment with (8E,12E,14E)-7-((4-cycloheptylpiperazin-1-yl)carbonyl)oxy-3,6,16,21-tetrahydroxy-6,10,12,16,20-pentamethyl-18,19-epoxytricosa-8,12,14-trien-11-olide were identified.
In order to consider the analysis conditions, variations in the data from the samples with identical conditions were studied. […] It turned out that, by analyzing under conditions where the expression level was more than 100 and change in the expression level was more than five times, a probe set with increased expression can be extracted.
Probe sets showing that the normalized change in the level expression of the probe set in the group with the treatment was more than 5 times; the expression level of the probe set and the gene in the group with the treatment were more than 100; and probe set annotation was “extended, full, free”, were picked out. Welch's t-test was conducted with the probe sets extracted for the treated group and the control group to determine a p and q value. A gene containing the probe sets with the q value of less than 5% was determined as a candidate gene with increased expression level of the intron regions (Table 3).
In Table 3, for each gene evaluated, gene name (Gene Name), abbreviated name (Gene Symbol), accession number (Accession), alias name (Synonym), transcription cluster number in Human Exon 1.0 ST Array (Human Exon 1.0 ST Array Transcript Cluster ID), chromosome number (Chromosome), type of strand (Strand), start region (Start), stop region (Stop), and change in expression level (Fold Change) were respectively shown.

In the case of CCC(O)C(C)C1OC1CC(C)(O)/C=C/C=C(\C)C1OC(=O)CC(O)CCC(C)(O)C(OC(=O)N2CCN(C3CCCCCC3)CC2)/C=C/C1C (stereo not shown) [E7107, (8E,12E,14E)-7-((4-cycloheptylpiperazin-1-yl)carbonyl)oxy-3,6,16,21-tetrahydroxy-6,10,12,16,20-pentamethyl-18,19-epoxytricosa-8,12,14-trien-11-olide], the “Fold Change” value (gene HTRA2, change in expression level, treated vs control) is reported as 6.23, the “Fold Change” value (gene IARS, change in expression level, treated vs control) is reported as 6.38 and the “Fold Change” value (gene ID2B //ID2, Transcript Cluster ID 2468622, intron expression, treated vs control) is reported as 9.91. For the same compound, the “Fold Change” value (gene IDI1, change in expression level, treated vs control) was 11.81, the “Fold Change” value (gene IFNGR1, intron expression, treated vs control) was 7.04 and the “Fold Change” value (gene IGF2BP2, change in expression level, treated vs control) was 6.45. The “Fold Change” value (gene IKZF5, intron expression, treated vs control) was 7.38, the “Fold Change” value (gene IMP4, intron expression, treated vs control) was 7.31 and the “Fold Change” value (gene INCENP, Transcript Cluster ID 3333358, intron expression, treated vs control) was 9.73. The “Fold Change” value (gene INTS10, intron expression, treated vs control) was 6.67, the “Fold Change” value (gene IPO7, change in expression level, treated vs control) was 11.19 and the “Fold Change” value (gene ISG20L1, intron expression, treated vs control) was 7.47. The “Fold Change” value (gene ITGA2, intron expression, treated vs control) was 7.31, the “Fold Change” value (gene ITGA6, change in expression level, treated vs control) was 19.59 and the “Fold Change” value (gene ITGB1, change in expression level, treated vs control) was 21.20. The “Fold Change” value (gene IVNS1ABP, intron expression, treated vs control) was 7.10, the “Fold Change” value (gene JMJD2A, change in expression level, treated vs control) was 6.23 and the “Fold Change” value (gene KBTBD4, change in expression level, treated vs control) was 6.32. The “Fold Change” value (gene KEAP1 // ADAMTS6, intron expression, treated vs control) was 7.20, the “Fold Change” value (gene KHDRBS1, Transcript Cluster ID 2328465) was 5.15 and the “Fold Change” value (gene KIAA0090, Transcript Cluster ID 2399620, intron expression, treated vs control) was 9.22. For the same compound, the “Fold Change” value (gene KIAA0179, intron expression, treated vs control) was 6.87, the “Fold Change” value (gene KIAA0317, change in expression level, treated vs control) was 14.49 and the “Fold Change” value (gene KIAA0406, change in expression level, treated vs control) was 11.38. The “Fold Change” value (gene KIAA0409, change in expression level, treated vs control) was 5.98, the “Fold Change” value (gene KIAA0690 // CRTAM, change in expression level, treated vs control) was 11.86 and the “Fold Change” value (gene KIAA0859, change in expression level, treated vs control) was 14.17. For the same compound, the “Fold Change” value (gene KIAA0907, change in expression level, treated vs control) was 6.45, the “Fold Change” value (gene KIAA1429, Transcript Cluster ID 3145020, intron expression, treated vs control) was 9.57 and the “Fold Change” value (gene KIAA1984 // C9orf86, Transcript Cluster ID 3194635, intron expression, treated vs control) was 10.81. The “Fold Change” value (gene KIF5B, intron expression, treated vs control) was 7.04, the “Fold Change” value (gene KIF11, Transcript Cluster ID 3258168, intron expression, treated vs control) was 10.90 and the “Fold Change” value (gene KIF20A, Transcript Cluster ID 2830638) was 5.08. The “Fold Change” value (gene KIF22, change in expression level, treated vs control) was 6.40, the “Fold Change” value (gene KLF10, intron expression, treated vs control) was 7.30 and the “Fold Change” value (gene KLHL20, intron expression, treated vs control) was 6.90. For the same compound, the “Fold Change” value (gene KPNA4, change in expression level, treated vs control) was 6.31, the “Fold Change” value (gene KPNB1, change in expression level, treated vs control) was 13.68 and the “Fold Change” value (gene KRT18, change in expression level, treated vs control) was 11.07. The “Fold Change” value (gene KRT19, intron expression, treated vs control) was 7.32, the “Fold Change” value (gene LATS2, Transcript Cluster ID 3504526, intron expression, treated vs control) was 9.28 and the “Fold Change” value (gene LBR, intron expression, treated vs control) was 7.19. The “Fold Change” value (gene LEPROTL1, intron expression, treated vs control) was 7.06, the “Fold Change” value (gene LIPG, Transcript Cluster ID 3787855) was 5.34 and the “Fold Change” value (gene LMO7, Transcript Cluster ID 3494137, intron expression, treated vs control) was 9.22. For the same compound, the “Fold Change” value (gene LRPPRC, intron expression, treated vs control) was 6.51, the “Fold Change” value (gene LRRC59, Transcript Cluster ID 3762355, intron expression, treated vs control) was 10.85 and the “Fold Change” value (gene MAEA, intron expression, treated vs control) was 7.25. For the same compound, the “Fold Change” value (gene MAK10, intron expression, treated vs control) was 7.06, the “Fold Change” value (gene MAML1, intron expression, treated vs control) was 7.03 and the “Fold Change” value (gene MAN1A2 // UCA1, Transcript Cluster ID 2353881, intron expression, treated vs control) was 9.61. For the same compound, the “Fold Change” value (gene MAP3K4, change in expression level, treated vs control) was 6.42, the “Fold Change” value (gene MAP3K14, intron expression, treated vs control) was 6.85 and the “Fold Change” value (gene MAPRE1, change in expression level, treated vs control) was 12.37. For the same compound, the “Fold Change” value (gene MARCKS, Transcript Cluster ID 2922215) was 5.17, the “Fold Change” value (gene MARK2, intron expression, treated vs control) was 6.55 and the “Fold Change” value (gene MARK3, change in expression level, treated vs control) was 6.50. For the same compound, the “Fold Change” value (gene MATR3, intron expression, treated vs control) was 7.26, the “Fold Change” value (gene MBNL1, change in expression level, treated vs control) was 6.08 and the “Fold Change” value (gene MBNL2, change in expression level, treated vs control) was 19.31. For the same compound, the “Fold Change” value (gene MCL1, Transcript Cluster ID 2434438, intron expression, treated vs control) was 9.93, the “Fold Change” value (gene MED28, Transcript Cluster ID 2720181, intron expression, treated vs control) was 8.95 and the “Fold Change” value (gene MET, intron expression, treated vs control) was 6.97. The “Fold Change” value (gene METAP2 // FLJ11292, Transcript Cluster ID 3426917) was 5.23, the “Fold Change” value (gene MGC22014, change in expression level, treated vs control) was 6.37 and the “Fold Change” value (gene MGC72104 // FRG1, Transcript Cluster ID 2756029) was 5.13. For the same compound, the “Fold Change” value (gene MIS12, Transcript Cluster ID 3707759) was 5.13, the “Fold Change” value (gene MKI67IP, change in expression level, treated vs control) was 13.76 and the “Fold Change” value (gene MLL, Transcript Cluster ID 3351385) was 5.10. The “Fold Change” value (gene MLLT4, Transcript Cluster ID 2936857) was 5.28, the “Fold Change” value (gene MORF4 // MORF4L1, change in expression level, treated vs control) was 11.90 and the “Fold Change” value (gene MORF4L2, intron expression, treated vs control) was 7.03. For the same compound, the “Fold Change” value (gene MPHOSPH10, Transcript Cluster ID 2488078) was 5.16, the “Fold Change” value (gene MRPL16, change in expression level, treated vs control) was 5.99 and the “Fold Change” value (gene MRPL44, Transcript Cluster ID 2529782) was 5.41. The “Fold Change” value (gene MRPL46, intron expression, treated vs control) was 7.23, the “Fold Change” value (gene MRPL55, Transcript Cluster ID 2459438) was 5.11 and the “Fold Change” value (gene MRPS2, intron expression, treated vs control) was 7.02. The “Fold Change” value (gene MRPS7, Transcript Cluster ID 3734760, intron expression, treated vs control) was 10.41, the “Fold Change” value (gene MRPS30, intron expression, treated vs control) was 6.71 and the “Fold Change” value (gene MSN, change in expression level, treated vs control) was 11.57. The “Fold Change” value (gene MTAP, intron expression, treated vs control) was 6.77, the “Fold Change” value (gene MTMR1, intron expression, treated vs control) was 6.97 and the “Fold Change” value (gene MTMR3, Transcript Cluster ID 3942179) was 5.19. For the same compound, the “Fold Change” value (gene MTMR12, intron expression, treated vs control) was 7.00, the “Fold Change” value (gene MUC20, change in expression level, treated vs control) was 6.27 and the “Fold Change” value (gene MXD1, intron expression, treated vs control) was 6.82. The “Fold Change” value (gene NARG1, intron expression, treated vs control) was 7.00, the “Fold Change” value (gene NAT10, change in expression level, treated vs control) was 12.51 and the “Fold Change” value (gene NCBP2, Transcript Cluster ID 2713074, intron expression, treated vs control) was 9.23. The “Fold Change” value (gene NCL, Transcript Cluster ID 2603460) was 5.19, the “Fold Change” value (gene NDUFS3, intron expression, treated vs control) was 7.41 and the “Fold Change” value (gene NEDD4L // SEMA4G, Transcript Cluster ID 3789947) was 5.30. For the same compound, the “Fold Change” value (gene NET1, Transcript Cluster ID 3233182, intron expression, treated vs control) was 10.35, the “Fold Change” value (gene NF2, change in expression level, treated vs control) was 6.29 and the “Fold Change” value (gene NFE2L2 // DKFZp451M2119, Transcript Cluster ID 2588827, intron expression, treated vs control) was 9.48. For the same compound, the “Fold Change” value (gene NFE2L3, change in expression level, treated vs control) was 11.01, the “Fold Change” value (gene NFXL1, intron expression, treated vs control) was 6.55 and the “Fold Change” value (gene NHS, intron expression, treated vs control) was 7.29. For the same compound, the “Fold Change” value (gene NIP7, Transcript Cluster ID 3666686, intron expression, treated vs control) was 9.64, the “Fold Change” value (gene NIPBL // NRBP1, intron expression, treated vs control) was 6.68 and the “Fold Change” value (gene NKIRAS2, intron expression, treated vs control) was 6.70. The “Fold Change” value (gene NOL1, Transcript Cluster ID 3442024, intron expression, treated vs control) was 10.79.
